These are yes or no findings as the source states them, for the method shown. Binding seen in cells or lysates may run through a third protein. Here binding means that the protein was enriched with, or labelled near, the bait; the list need not be complete.
T1: Protein S100-A16, overexpressed from lentivirus (human) (UniProt Q96FQ6)
T1 sequence: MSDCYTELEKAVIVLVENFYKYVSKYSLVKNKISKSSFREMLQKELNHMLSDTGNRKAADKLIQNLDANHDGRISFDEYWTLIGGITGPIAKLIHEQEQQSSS

By UniProt entry, the sequences of proteins in these tests, tags left out.
UniProt Q13439: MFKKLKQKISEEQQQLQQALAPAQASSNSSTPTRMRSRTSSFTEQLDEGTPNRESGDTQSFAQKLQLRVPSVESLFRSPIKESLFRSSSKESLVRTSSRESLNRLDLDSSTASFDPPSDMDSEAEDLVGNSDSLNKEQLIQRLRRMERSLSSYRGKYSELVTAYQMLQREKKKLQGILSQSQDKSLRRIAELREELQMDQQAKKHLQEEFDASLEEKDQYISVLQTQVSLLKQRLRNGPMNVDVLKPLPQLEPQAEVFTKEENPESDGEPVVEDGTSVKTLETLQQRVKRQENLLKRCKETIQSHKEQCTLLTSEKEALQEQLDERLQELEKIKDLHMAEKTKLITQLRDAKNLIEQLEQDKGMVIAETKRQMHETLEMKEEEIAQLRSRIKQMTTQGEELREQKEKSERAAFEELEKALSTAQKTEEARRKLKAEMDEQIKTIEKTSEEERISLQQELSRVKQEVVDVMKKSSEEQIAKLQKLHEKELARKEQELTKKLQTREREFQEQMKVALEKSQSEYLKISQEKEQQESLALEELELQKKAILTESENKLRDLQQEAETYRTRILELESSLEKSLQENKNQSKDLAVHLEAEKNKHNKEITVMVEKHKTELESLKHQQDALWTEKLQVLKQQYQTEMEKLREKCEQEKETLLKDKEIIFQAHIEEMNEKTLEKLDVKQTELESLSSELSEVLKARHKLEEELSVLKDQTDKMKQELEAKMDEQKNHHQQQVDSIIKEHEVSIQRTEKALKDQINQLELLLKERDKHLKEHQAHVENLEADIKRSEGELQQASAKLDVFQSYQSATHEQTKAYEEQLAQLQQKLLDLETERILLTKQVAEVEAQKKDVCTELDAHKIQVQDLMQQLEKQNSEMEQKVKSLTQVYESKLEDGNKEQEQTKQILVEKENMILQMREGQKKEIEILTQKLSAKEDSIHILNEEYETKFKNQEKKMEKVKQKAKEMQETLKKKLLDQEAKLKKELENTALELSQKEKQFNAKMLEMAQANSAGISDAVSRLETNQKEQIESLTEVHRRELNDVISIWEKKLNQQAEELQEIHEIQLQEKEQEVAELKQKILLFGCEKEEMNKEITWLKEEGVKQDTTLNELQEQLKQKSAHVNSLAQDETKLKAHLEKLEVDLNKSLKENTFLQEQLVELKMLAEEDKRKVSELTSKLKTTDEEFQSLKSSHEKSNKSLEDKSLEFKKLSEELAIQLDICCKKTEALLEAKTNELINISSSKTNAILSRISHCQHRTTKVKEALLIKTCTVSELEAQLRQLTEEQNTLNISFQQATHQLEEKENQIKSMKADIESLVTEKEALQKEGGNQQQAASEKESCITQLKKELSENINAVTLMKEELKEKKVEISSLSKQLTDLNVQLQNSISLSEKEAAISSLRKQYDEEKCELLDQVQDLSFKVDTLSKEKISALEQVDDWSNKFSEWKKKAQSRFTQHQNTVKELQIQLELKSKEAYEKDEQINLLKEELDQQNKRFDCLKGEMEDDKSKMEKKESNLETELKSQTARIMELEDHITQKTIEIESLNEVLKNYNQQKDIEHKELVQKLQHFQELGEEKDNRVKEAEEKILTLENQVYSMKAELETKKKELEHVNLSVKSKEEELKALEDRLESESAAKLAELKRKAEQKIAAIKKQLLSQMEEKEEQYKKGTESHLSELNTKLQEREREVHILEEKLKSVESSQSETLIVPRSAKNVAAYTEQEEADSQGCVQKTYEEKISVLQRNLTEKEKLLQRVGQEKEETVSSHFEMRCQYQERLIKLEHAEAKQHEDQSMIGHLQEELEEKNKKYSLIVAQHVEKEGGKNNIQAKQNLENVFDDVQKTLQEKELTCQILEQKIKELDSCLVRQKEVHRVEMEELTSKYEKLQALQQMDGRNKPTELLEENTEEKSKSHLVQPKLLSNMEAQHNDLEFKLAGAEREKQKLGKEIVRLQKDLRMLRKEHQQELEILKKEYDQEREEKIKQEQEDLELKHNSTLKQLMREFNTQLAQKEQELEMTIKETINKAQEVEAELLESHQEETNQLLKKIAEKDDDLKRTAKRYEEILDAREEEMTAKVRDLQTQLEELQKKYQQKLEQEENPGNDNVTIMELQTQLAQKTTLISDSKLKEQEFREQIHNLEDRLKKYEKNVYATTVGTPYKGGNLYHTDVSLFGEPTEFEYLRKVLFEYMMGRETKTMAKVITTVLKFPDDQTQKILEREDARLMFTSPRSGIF
UniProt Q9BUA6: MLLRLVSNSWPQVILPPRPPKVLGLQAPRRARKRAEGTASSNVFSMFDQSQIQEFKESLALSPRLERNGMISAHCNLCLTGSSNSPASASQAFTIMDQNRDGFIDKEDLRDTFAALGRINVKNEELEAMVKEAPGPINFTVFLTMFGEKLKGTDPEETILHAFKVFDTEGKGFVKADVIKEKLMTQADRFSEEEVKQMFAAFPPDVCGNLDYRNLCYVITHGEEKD
UniProt P35579: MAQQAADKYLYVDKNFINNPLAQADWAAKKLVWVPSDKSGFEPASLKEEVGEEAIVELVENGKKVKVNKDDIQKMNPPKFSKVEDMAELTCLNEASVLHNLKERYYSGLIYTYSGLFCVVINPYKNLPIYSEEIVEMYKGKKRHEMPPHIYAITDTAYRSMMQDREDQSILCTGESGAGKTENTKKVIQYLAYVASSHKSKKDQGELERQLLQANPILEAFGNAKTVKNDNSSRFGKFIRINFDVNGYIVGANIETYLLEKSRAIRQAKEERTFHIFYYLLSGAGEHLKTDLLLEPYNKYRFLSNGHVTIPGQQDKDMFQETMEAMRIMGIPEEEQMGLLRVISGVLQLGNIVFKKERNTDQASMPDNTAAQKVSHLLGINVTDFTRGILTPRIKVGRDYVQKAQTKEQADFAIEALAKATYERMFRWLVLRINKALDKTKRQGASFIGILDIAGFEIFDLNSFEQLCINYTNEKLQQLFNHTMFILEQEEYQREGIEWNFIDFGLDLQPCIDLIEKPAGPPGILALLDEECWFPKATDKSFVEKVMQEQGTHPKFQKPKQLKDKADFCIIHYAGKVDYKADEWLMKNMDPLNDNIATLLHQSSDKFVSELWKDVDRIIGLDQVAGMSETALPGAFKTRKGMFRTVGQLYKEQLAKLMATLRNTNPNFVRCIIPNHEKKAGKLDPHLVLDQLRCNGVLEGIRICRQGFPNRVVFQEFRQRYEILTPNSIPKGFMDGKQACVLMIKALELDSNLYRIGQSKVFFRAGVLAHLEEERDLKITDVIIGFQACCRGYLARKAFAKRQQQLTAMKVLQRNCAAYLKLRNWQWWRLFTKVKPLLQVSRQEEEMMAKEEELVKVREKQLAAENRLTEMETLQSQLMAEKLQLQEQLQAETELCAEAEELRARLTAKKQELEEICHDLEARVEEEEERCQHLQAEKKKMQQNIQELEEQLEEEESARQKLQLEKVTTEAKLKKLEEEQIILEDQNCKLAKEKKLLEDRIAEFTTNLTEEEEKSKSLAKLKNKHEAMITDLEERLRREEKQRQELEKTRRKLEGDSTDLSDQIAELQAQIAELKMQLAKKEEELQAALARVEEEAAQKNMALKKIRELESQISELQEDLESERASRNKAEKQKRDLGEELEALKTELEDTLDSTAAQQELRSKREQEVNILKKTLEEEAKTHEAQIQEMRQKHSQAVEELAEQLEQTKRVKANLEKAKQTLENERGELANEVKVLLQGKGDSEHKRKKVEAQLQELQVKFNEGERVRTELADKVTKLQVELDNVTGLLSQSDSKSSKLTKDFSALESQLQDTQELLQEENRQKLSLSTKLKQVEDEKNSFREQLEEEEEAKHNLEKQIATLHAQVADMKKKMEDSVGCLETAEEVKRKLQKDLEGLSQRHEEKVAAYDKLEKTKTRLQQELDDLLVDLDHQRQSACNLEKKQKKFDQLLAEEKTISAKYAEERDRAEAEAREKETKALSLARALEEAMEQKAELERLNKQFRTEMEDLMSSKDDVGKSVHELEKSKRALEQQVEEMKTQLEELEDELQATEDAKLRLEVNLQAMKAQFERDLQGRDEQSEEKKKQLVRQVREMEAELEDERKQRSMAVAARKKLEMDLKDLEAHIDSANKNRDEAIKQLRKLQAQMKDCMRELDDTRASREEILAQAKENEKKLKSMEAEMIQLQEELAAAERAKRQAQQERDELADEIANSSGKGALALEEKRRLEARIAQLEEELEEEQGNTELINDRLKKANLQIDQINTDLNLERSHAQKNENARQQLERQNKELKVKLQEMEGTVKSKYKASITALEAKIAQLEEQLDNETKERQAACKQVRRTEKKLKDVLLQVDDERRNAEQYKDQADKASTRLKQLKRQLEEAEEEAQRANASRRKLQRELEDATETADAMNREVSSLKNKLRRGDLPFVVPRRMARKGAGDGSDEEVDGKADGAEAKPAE
UniProt Q5H9U9: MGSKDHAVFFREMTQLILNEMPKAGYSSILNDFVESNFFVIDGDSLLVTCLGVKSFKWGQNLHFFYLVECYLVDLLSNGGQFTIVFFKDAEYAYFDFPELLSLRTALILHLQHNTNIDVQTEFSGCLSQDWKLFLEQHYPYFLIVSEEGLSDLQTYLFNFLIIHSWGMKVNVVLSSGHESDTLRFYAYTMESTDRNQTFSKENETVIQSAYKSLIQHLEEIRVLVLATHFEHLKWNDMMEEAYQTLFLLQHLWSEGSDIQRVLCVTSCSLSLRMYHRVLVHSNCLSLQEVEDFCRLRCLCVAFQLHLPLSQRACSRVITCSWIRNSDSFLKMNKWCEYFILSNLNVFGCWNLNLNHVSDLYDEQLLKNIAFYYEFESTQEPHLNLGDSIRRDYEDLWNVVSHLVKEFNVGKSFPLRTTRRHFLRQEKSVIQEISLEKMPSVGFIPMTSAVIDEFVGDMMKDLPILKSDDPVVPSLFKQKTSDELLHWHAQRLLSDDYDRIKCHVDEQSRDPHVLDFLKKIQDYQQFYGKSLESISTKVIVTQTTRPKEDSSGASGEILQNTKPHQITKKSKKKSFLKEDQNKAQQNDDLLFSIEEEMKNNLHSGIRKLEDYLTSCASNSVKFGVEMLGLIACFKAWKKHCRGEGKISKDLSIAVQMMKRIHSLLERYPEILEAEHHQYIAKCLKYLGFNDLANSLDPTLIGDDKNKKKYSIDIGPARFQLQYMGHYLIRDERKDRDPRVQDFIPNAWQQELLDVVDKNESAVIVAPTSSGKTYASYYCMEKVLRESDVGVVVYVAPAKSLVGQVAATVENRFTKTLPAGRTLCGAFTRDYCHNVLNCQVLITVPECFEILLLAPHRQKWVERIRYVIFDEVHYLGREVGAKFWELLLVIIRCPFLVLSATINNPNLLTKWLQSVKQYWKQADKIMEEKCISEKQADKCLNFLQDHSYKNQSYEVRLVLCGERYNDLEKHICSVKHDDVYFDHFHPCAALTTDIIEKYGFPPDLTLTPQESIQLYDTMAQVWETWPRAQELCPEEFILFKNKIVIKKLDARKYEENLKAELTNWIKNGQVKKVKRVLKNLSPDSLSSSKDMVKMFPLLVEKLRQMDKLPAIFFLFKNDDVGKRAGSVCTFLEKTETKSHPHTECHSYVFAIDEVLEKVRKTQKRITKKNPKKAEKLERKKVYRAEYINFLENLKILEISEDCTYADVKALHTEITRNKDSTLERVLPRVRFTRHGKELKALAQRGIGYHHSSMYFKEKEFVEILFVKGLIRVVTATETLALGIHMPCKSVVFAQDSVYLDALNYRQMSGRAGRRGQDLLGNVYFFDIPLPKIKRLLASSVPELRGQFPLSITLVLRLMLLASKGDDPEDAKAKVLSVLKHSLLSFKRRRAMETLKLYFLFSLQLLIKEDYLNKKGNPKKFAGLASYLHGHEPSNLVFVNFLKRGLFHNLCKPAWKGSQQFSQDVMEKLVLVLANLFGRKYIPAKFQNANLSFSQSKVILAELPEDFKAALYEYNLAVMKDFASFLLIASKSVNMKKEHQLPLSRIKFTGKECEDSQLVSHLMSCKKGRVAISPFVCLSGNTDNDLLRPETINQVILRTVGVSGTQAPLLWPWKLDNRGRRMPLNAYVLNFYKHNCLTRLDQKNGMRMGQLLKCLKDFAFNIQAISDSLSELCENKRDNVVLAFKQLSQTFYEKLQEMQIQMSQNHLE
UniProt Q5VTE0: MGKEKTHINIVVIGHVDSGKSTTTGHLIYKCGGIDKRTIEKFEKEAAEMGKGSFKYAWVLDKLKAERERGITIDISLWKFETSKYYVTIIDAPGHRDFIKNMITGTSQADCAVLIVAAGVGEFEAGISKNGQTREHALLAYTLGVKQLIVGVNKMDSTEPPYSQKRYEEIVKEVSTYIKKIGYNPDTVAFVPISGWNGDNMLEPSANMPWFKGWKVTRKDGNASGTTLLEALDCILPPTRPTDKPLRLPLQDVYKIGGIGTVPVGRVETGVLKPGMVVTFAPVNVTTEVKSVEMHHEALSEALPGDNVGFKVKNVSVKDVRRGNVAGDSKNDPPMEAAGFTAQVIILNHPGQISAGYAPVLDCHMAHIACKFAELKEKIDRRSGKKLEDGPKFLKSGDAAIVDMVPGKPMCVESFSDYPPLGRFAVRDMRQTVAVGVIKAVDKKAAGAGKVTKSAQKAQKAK


Biological target: T1, Protein S100-A16, overexpressed from lentivirus (human)
Experiment: affinity purification with mass spectrometry; HK-2 cells stably overexpressing S100A16 or scramble-transduced, lysed with RIPA; lysates immunoprecipitated with anti-S100A16 antibody; LC-MS/MS (LTQ-Orbitrap)

binding	Molecule
binds	78 kDa glucose-regulated protein (from UniProt P11021 19-654)
binds	ATP synthase subunit beta mitochondrial (from UniProt P06576 48-529)
binds	ATP-binding cassette sub-family A member 2 (from UniProt Q9BZC7 1-2435)
binds	Abnormal spindle-like microcephaly-associated protein (from UniProt Q8IZT6 1-3477)
binds	Golgin subfamily A member 4 (from UniProt Q13439 1-2230)
binds	Histone H1.2 (from UniProt P16403 1-213)
binds	Isoform 2 of Exocyst complex component 7 (from UniProt Q9UPT5-2 1-653)
binds	Isoform 2 of Kinesin-like protein KIF1B (from UniProt O60333-2 1-1770)
binds	Isoform 2 of Kinesin-like protein KIF26B (from UniProt Q2KJY2-2 1-1725)
binds	Isoform 2 of Ryanodine receptor 1 (from UniProt P21817-2 1-5033)
binds	Isoform 2 of Tropomyosin alpha-3 chain (from UniProt P06753-2 1-248)
binds	Isoform 9 of Tropomyosin alpha-1 chain (from UniProt P09493-9 1-284)
binds	Microtubule-associated protein (from UniProt P27816 1-1152)
binds	Myosin light polypeptide 6 (from UniProt P60660 1-151)
binds	Myosin regulatory light chain 10 (from UniProt Q9BUA6 1-226)
binds	Myosin-9 (from UniProt P35579 1-1960)
binds	Nipped-B-like protein (from UniProt Q6KC79 1-2804)

binding	Molecule
binds	Nuclease-sensitive element-binding protein 1 (from UniProt P67809 1-324)
binds	Plexin-A2 (from UniProt O75051 35-1894)
binds	Probable ATP-dependent RNA helicase DDX60-like (from UniProt Q5H9U9 1-1706)
binds	Protease serine 1 (from UniProt P07477)
binds	Putative elongation factor 1-alpha-like 3 (from UniProt Q5VTE0 1-462)
binds	Regulation of nuclear pre-mRNA domain-containing protein 2 (from UniProt Q5VT52 1-1461)
binds	Ryanodine receptor 2 (from UniProt Q92736 1-4967)
binds	Transforming acidic coiled-coil-containing protein 2 (from UniProt O95359 1-2948)
binds	Usherin (from UniProt O75445 32-5202)
binds	Vimentin (from UniProt P08670 1-466)
binds	Phospholipid phosphatase 6 (protein, UniProt Q8IY26 1-295) MPSPRRSMEGRPLGVSASSSSSSPGSPAHGGGGGGSRFEFQSLLSSRATAVDPTCARLRASESPVHRRGSFPLAAAGPSQSPAPPLPEEDRMDLNPSFLGIALRSLLAIDLWLSKKLGVCAGESSSWGSVRPLMKLLEISGHGIPWLLGTLYCLCRSDSWAGREVLMNLLFALLLDLLLVALIKGLVRRRRPAHNQMDMFVTLSVDKYSFPSGHATRAALMSRFILNHLVLAIPLRVLVVLWAFVLGLSRVMLGRHNVTDVAFGFFLGYMQYSIVDYCWLSPHNAPVLFLLWSQR
binds	Perilipin-3 (protein, UniProt O60664 1-434) MSADGAEADGSTQVTVEEPVQQPSVVDRVASMPLISSTCDMVSAAYASTKESYPHIKTVCDAAEKGVRTLTAAAVSGAQPILSKLEPQIASASEYAHRGLDKLEENLPILQQPTEKVLADTKELVSSKVSGAQEMVSSAKDTVATQLSEAVDATRGAVQSGVDKTKSVVTGGVQSVMGSRLGQMVLSGVDTVLGKSEEWADNHLPLTDAELARIATSLDGFDVASVQQQRQEQSYFVRLGSLSERLRQHAYEHSLGKLRATKQRAQEALLQLSQVLSLMETVKQGVDQKLVEGQEKLHQMWLSWNQKQLQGPEKEPPKPEQVESRALTMFRDIAQQLQATCTSLGSSIQGLPTNVKDQVQQARRQVEDLQATFSSIHSFQDLSSSILAQSRERVASAREALDHMVEYVAQNTPVTWLVGPFAPGITEKAPEEKK
binds	Fanconi anemia group B protein (protein, UniProt Q8NB91 1-859) MTSKQAMSSNEQERLLCYNGEVLVFQLSKGNFADKEPTKTPILHVRRMVFDRGTKVFVQKSTGFFTIKEENSHLKIMCCNCVSDFRTGINLPYIVIEKNKKNNVFEYFLLILHSTNKFEMRLSFKLGYEMKDGLRVLNGPLILWRHVKAFFFISSQTGKVVSVSGNFSSIQWAGEIENLGMVLLGLKECCLSEEECTQEPSKSDYAIWNTKFCVYSLESQEVLSDIYIIPPAYSSVVTYVHICATEIIKNQLRISLIALTRKNQLISFQNGTPKNVCQLPFGDPCAVQLMDSGGGNLFFVVSFISNNACAVWKESFQVAAKWEKLSLVLIDDFIGSGTEQVLLLFKDSLNSDCLTSFKITDLGKINYSSEPSDCNEDDLFEDKQENRYLVVPPLETGLKVCFSSFRELRQHLLLKEKIISKSYKALINLVQGKDDNTSSAEEKECLVPLCGEEENSVHILDEKLSDNFQDSEQLVEKIWYRVIDDSLVVGVKTTSSLKLSLNDVTLSLLMDQAHDSRFRLLKCQNRVIKLSTNPFPAPYLMPCEIGLEAKRVTLTPDSKKEESFVCEHPSKKECVQIITAVTSLSPLLTFSKFCCTVLLQIMERESGNCPKDRYVVCGRVFLSLEDLSTGKYLLTFPKKKPIEHMEDLFALLAAFHKSCFQITSPGYALNSMKVWLLEHMKCEIIKEFPEVYFCERPGSFYGTLFTWKQRTPFEGILIIYSRNQTVMFQCLHNLIRILPINCFLKNLKSGSENFLIDNMAFTLEKELVTLSSLSSAIAKHESNFMQRCEVSKGKSSVVAAALSDRRENIHPYRKELQREKKKMLQTNLKVSGALYREITLKVAEVQLKSDFAAQKLSNL
binds	Isoform 2 of Ectoderm-neural cortex protein 1 (protein, UniProt O14682-2 1-516) MFSGGLKESQDSEVNFDNSIHPEVLELLLDYAYSSRVIINEENAESLLEAGDMLEFQDIRDACAEFLEKNLHPTNCLGMLLLSDAHQCTKLYELSWRMCLSNFQTIRKNEDFLQLPQDMVVQLLSSEELETEDERLVYESAINWISYDLKKRYCYLPELLQTVRLALLPAIYLMENVAMEELITKQRKSKEIVEEAIRCKLKILQNDGVVTSLCARPRKTGHALFLLGGQTFMCDKLYLVDQKAKEIIPKADIPSPRKEFSACAIGCKVYITGGRGSENGVSKDVWVYDTLHEEWSKAAPMLVARFGHGSAELKHCLYVVGGHTAATGCLPASPSVSLKQVEHYDPTINKWTMVAPLREGVSNAAVVSAKLKLFAFGGTSVSHDKLPKVQCYDQCENRWTVPATCPQPWRYTAAAVLGNQIFIMGGDTEFSACSAYKFNSETYQWTKVGDVTAKRMSCHAVASGNKLYVVGGYFGIQRCKTLDCYDPTLDVWNSITTVPYSLIPTAFVSTWKHLPS
binds	Ewing's tumor-associated antigen 1 (protein, UniProt Q9NY74 1-926) MSRRRKHDDSPSPKKTPHKTVAAEECGSVVEPGRRRLRSARGSWPCGAREGPPGPVRQREQPPTAALCSKSNPEERYETPKRALKMDSLSSSFSSPNDPDGQNDIFWDQNSPLTKQLGKGRKKQIYTTDSDEISHIVNRIAPQDEKPTTNSMLDMWIGETAIPCTPSVAKGKSRAKISCTKLKTQSQEEELMKLAKQFDKNMEELDVIQEQNKRNYDFTQMISETEILSNYKDNIQMWSLHNIVPEIDNATKKPIKGNTKISVANNQNSSQKPFDQIAEAAFNAIFDGSTQKCSGQLSQELPEAFWSTSNTTFVKTNALKEEKIITNETLVIEKLSNKTPRSLSSQVDTPIMTKSCVTSCTKEPETSNKYIDAFTTSDFEDDWENLLGSEPFAMQNIDMPELFPSKTAHVTDQKEICTFNSKTVKNTSRANTSPDARLGDSKVLQDLSSKTYDRELIDAEYRFSPNSNKSNKLSTGNKMKFENSSNKIVIQDEIQNCIVTSNLTKIKEDILTNSTEASERKSALNTRYSNEQKNKCILNQSIKAPVNTDLFGSANLGSKTSVSNPNQTSASKVGSFFDDWNDPSFANEIIKACHQLDNTWEADDVDDDLLYQACDDIERLTQQQDIRKDSKTSESICEINNNSEHGAKLTQQQDIRKDSKTSESICEINNNSEHGAKNMFAISKQGSNLVQSKHLNPGSISVQTSLTNSSQIDKPMKMEKGEMYGNSPRFLGATNLTMYSKISNCQINNLHVSYTNTDVPIQVNSSKLVLPGSSSLNVTSDHMNTEITTYKKKLSTNQPCHKTVTDEAQSNLNTTVGFSKFTFTRMKNSQILSQFNQNCITGSMSDTKITQGVEKKKGVNPLLEEAVGQQSLVKLSESLKQSSKEEEEKNRKCSPEEIQRKRQEALVRRMAKARASSVNAAPTSFL
binds	Isoform 2 of Extracellular matrix protein 1 (protein, UniProt Q16610-2 20-415) ASEGGFTATGQRQLRPEHFQEVGYAAPPSPPLSRSLPMDHPDSSQHGPPFEGQSQVQPPPSQEATPLQQEKLLPAQLPAEKEVGPPLPQEAVPLQKELPSLQHPNEQKEGTPAPFGDQSHPEPESWNAAQHCQQDRSQGGWGHRLDGFPPGRPSPDNLNQICLPNRQHVVYGPWNLPQSSYSHLTRQGETLNFLEIGYSRCCHCRSHTNRLECAKLVWEDTLDKYCDREYAVKTHHHLCCRHPPSPTRDECFARRAPYPNYDRDILTIDIGRVTPNLMGHLCGNQRVLTKHKHIPGLIHNMTARCCDLPFPEQACCAEEEKLTFINDLCGPRRNIWRDPALCCYLSPGDEQVNCFNINYLRNVALVSGDTENAKGQGEQGSTGGTNISSTSEPKEE
binds	Probable inactive serine protease 37 (protein, UniProt A4D1T9 20-235) SVQKEDPAPYLVYLKSHFNPCVGVLIKPSWVLAPAHCYLPNLKVMLGNFKSRVRDGTEQTINPIQIVRYWNYSHSAPQDDLMLIKLAKPAMLNPKVQPLTLATTNVRPGTVCLLSGLDWSQENSGRHPDLRQNLEAPVMSDRECQKTEQGKSHRNSLCVKFVKVFSRIFGEVAVATVICKDKLQGIEVGHFMGGDVGIYTNVYKYVSWIENTAKDK

Molecule	binding
Isoform 5 of Trypsin-3 (human (endogenous in HK-2))	binds

Source: paper PMC7039973
